Data from the supplement of paper PMC7661543.
Differences between knockout arms are mostly noise.

Test system: SKBR3
Assay: relative cell number vs DMSO control (72 h) (% of DMSO); higher = less growth inhibition (more cells)
Protocol: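 QMAP-Seq: a pool of 5 breast cancer cell lines (ZR-75-1, SKBR3, HCC-38, MDA-MB-231, BT-20), each carrying 12 doxycycline-inducible Cas9 sgRNA perturbations (11 knockouts plus non-targeting sgNT), was treated with compounds for 72 h at four 10-fold doses (10 nM-10 uM or 1 nM-1 uM range). Barcodes were amplified and sequenced, and cell number was interpolated from 293T spike-in standard curves. The result is expressed as % of the median of DMSO wells. Two biological replicates.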

CC/C(=C(\c1ccc(O)cc1)c1ccc(OCCN(C)C)cc1)c1ccccc1 [4-Hydroxytamoxifen]
Conditions	relative cell number
sgRNA knockout: sgATF3, 10 nM	95.93
sgRNA knockout: sgATF3, 100 nM	99.4
sgRNA knockout: sgATF3, 1000 nM	104
sgRNA knockout: sgATF3, 10000 nM	45.3
sgRNA knockout: sgATF4, 10 nM	97
sgRNA knockout: sgATF4, 100 nM	102
sgRNA knockout: sgATF4, 1000 nM	89.7
sgRNA knockout: sgATF4, 10000 nM	33.9
sgRNA knockout: sgATF6, 10 nM	119
sgRNA knockout: sgATF6, 100 nM	103
sgRNA knockout: sgATF6, 1000 nM	90
sgRNA knockout: sgATF6, 10000 nM	49.5
sgRNA knockout: sgATG7, 10 nM	121
sgRNA knockout: sgATG7, 100 nM	85.9
sgRNA knockout: sgATG7, 1000 nM	88.1
sgRNA knockout: sgATG7, 10000 nM	40.7
sgRNA knockout: sgERN1, 10 nM	126
sgRNA knockout: sgERN1, 100 nM	93.1
sgRNA knockout: sgERN1, 1000 nM	104
sgRNA knockout: sgERN1, 10000 nM	44.9
sgRNA knockout: sgHSF1, 10 nM	69.9
sgRNA knockout: sgHSF1, 100 nM	85.4
sgRNA knockout: sgHSF1, 1000 nM	90.8
sgRNA knockout: sgHSF1, 10000 nM	36.8
sgRNA knockout: sgHSF2, 10 nM	98.3
sgRNA knockout: sgHSF2, 100 nM	90.66
sgRNA knockout: sgHSF2, 1000 nM	86.7
sgRNA knockout: sgHSF2, 10000 nM	47.1
sgRNA knockout: sgKEAP1, 10 nM	98.1
sgRNA knockout: sgKEAP1, 100 nM	97.8
sgRNA knockout: sgKEAP1, 1000 nM	78.3
sgRNA knockout: sgKEAP1, 10000 nM	32.55
sgRNA knockout: sgNFE2L2, 10 nM	97.5
sgRNA knockout: sgNFE2L2, 100 nM	79.9
sgRNA knockout: sgNFE2L2, 1000 nM	96.8
sgRNA knockout: sgNFE2L2, 10000 nM	38.4
sgRNA knockout: sgSLC35F2, 10 nM	94.3
sgRNA knockout: sgSLC35F2, 100 nM	99.8
sgRNA knockout: sgSLC35F2, 1000 nM	95.6
sgRNA knockout: sgSLC35F2, 10000 nM	34.4
sgRNA knockout: sgXBP1, 10 nM	110
sgRNA knockout: sgXBP1, 100 nM	91.3
sgRNA knockout: sgXBP1, 1000 nM	104
sgRNA knockout: sgXBP1, 10000 nM	36.6

COc1cc(OC)c(/C=C/S(=O)(=O)Cc2ccc(OC)c(NCC(=O)O)c2)c(OC)c1 [Rigosertib]
Conditions	relative cell number
sgRNA knockout: sgATF3, 10 nM	92.4
sgRNA knockout: sgATF3, 100 nM	14.7
sgRNA knockout: sgATF3, 1000 nM	13.4
sgRNA knockout: sgATF3, 10000 nM	12.6
sgRNA knockout: sgATF4, 10 nM	88
sgRNA knockout: sgATF4, 100 nM	14.2
sgRNA knockout: sgATF4, 1000 nM	11.5
sgRNA knockout: sgATF4, 10000 nM	13.82
sgRNA knockout: sgATF6, 10 nM	84.4
sgRNA knockout: sgATF6, 100 nM	13.8
sgRNA knockout: sgATF6, 1000 nM	10.5
sgRNA knockout: sgATF6, 10000 nM	9.03
sgRNA knockout: sgATG7, 10 nM	115
sgRNA knockout: sgATG7, 100 nM	16.08
sgRNA knockout: sgATG7, 1000 nM	7.19
sgRNA knockout: sgATG7, 10000 nM	13.4
sgRNA knockout: sgERN1, 10 nM	92.8
sgRNA knockout: sgERN1, 100 nM	13
sgRNA knockout: sgERN1, 1000 nM	11.2
sgRNA knockout: sgERN1, 10000 nM	9.96
sgRNA knockout: sgHSF1, 10 nM	77.2
sgRNA knockout: sgHSF1, 100 nM	19
sgRNA knockout: sgHSF1, 1000 nM	8.37
sgRNA knockout: sgHSF1, 10000 nM	13.2
sgRNA knockout: sgHSF2, 10 nM	96.9
sgRNA knockout: sgHSF2, 100 nM	19.7
sgRNA knockout: sgHSF2, 1000 nM	13.4
sgRNA knockout: sgHSF2, 10000 nM	13.2
sgRNA knockout: sgKEAP1, 10 nM	85.3
sgRNA knockout: sgKEAP1, 100 nM	15.2
sgRNA knockout: sgKEAP1, 1000 nM	13.1
sgRNA knockout: sgKEAP1, 10000 nM	12.4
sgRNA knockout: sgNFE2L2, 10 nM	99.6
sgRNA knockout: sgNFE2L2, 100 nM	15.8
sgRNA knockout: sgNFE2L2, 1000 nM	9.943
sgRNA knockout: sgNFE2L2, 10000 nM	11.8
sgRNA knockout: sgSLC35F2, 10 nM	83.3
sgRNA knockout: sgSLC35F2, 100 nM	15.9
sgRNA knockout: sgSLC35F2, 1000 nM	12.1
sgRNA knockout: sgSLC35F2, 10000 nM	12.15
sgRNA knockout: sgXBP1, 10 nM	78.9
sgRNA knockout: sgXBP1, 100 nM	9.14
sgRNA knockout: sgXBP1, 1000 nM	9
sgRNA knockout: sgXBP1, 10000 nM	13.8

Cc1ccc(Nc2nccc(N(C)c3ccc4c(C)n(C)nc4c3)n2)cc1S(N)(=O)=O [Pazopanib]
Conditions	relative cell number
sgRNA knockout: sgATF3, 10 nM	85.4
sgRNA knockout: sgATF3, 100 nM	71.8
sgRNA knockout: sgATF3, 1000 nM	108
sgRNA knockout: sgATF3, 10000 nM	45
sgRNA knockout: sgATF4, 10 nM	99.8
sgRNA knockout: sgATF4, 100 nM	83.6
sgRNA knockout: sgATF4, 1000 nM	93.61
sgRNA knockout: sgATF4, 10000 nM	62.3
sgRNA knockout: sgATF6, 10 nM	102
sgRNA knockout: sgATF6, 100 nM	88.3
sgRNA knockout: sgATF6, 1000 nM	87.1
sgRNA knockout: sgATF6, 10000 nM	70.5
sgRNA knockout: sgATG7, 10 nM	119
sgRNA knockout: sgATG7, 100 nM	94.9
sgRNA knockout: sgATG7, 1000 nM	83.9
sgRNA knockout: sgATG7, 10000 nM	64.1
sgRNA knockout: sgERN1, 10 nM	104.7
sgRNA knockout: sgERN1, 100 nM	83.8
sgRNA knockout: sgERN1, 1000 nM	101
sgRNA knockout: sgERN1, 10000 nM	70.5
sgRNA knockout: sgHSF1, 10 nM	91.09
sgRNA knockout: sgHSF1, 100 nM	71.6
sgRNA knockout: sgHSF1, 1000 nM	87.6
sgRNA knockout: sgHSF1, 10000 nM	64.3
sgRNA knockout: sgHSF2, 10 nM	85.6
sgRNA knockout: sgHSF2, 100 nM	95.2
sgRNA knockout: sgHSF2, 1000 nM	111
sgRNA knockout: sgHSF2, 10000 nM	67.3
sgRNA knockout: sgKEAP1, 10 nM	96.5
sgRNA knockout: sgKEAP1, 100 nM	93.1
sgRNA knockout: sgKEAP1, 1000 nM	91.62
sgRNA knockout: sgKEAP1, 10000 nM	59.7
sgRNA knockout: sgNFE2L2, 10 nM	89.6
sgRNA knockout: sgNFE2L2, 100 nM	90.1
sgRNA knockout: sgNFE2L2, 1000 nM	87.4
sgRNA knockout: sgNFE2L2, 10000 nM	62.2
sgRNA knockout: sgSLC35F2, 10 nM	91.57
sgRNA knockout: sgSLC35F2, 100 nM	63.5
sgRNA knockout: sgSLC35F2, 1000 nM	114
sgRNA knockout: sgSLC35F2, 10000 nM	53.7
sgRNA knockout: sgXBP1, 10 nM	83.6
sgRNA knockout: sgXBP1, 100 nM	85.7
sgRNA knockout: sgXBP1, 1000 nM	92.8
sgRNA knockout: sgXBP1, 10000 nM	55.8
